This assay addresses T1, Gremlin-1 (GREM1), not biotinylated, as used in the competitive LOCI assays (human) (UniProt O60565).
T1 sequence: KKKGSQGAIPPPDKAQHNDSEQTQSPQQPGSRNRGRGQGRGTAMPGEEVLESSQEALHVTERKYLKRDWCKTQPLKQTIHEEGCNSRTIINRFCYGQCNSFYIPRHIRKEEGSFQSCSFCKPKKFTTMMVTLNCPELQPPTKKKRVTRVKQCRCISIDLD
In words: AlphaScreen or HTRF. A general note: Alpha assays give light when donor and acceptor beads are brought close together.

No constants are given. Whether binding was seen depends on the method and setting. Some entries that bind do so weakly or less than the wild type.

B1: BMP-4 (ab231930, Abcam) (ligand, UniProt P12644 293-408)
chain: SPKHHSQRARKKNKNCRRHSLYVDFSDVGWNDWIVAPPGYQAFYCHGDCPFPLADHLNSTNHAIVQTLVNSVNSSIPKACCVPTELSAISMLYLDEYDKVVLKNYQEMVVEGCGCR
As to B1, the binding result is on record as “binds”.

B2: biotinylated BMP-2 (bs-48015P-Biotin, Bioss) (ligand, UniProt P12643 283-396)
chain: QAKHKQRKRLKSSCKRHPLYVDFSDVGWNDWIVAPPGYHAFYCHGECPFPLADHLNSTNHAIVQTLVNSVNSKIPKACCVPTELSAISMLYLDENEKVVLKNYQDMVVEGCGCR
modifications: biotin (site not stated)
On to B2, for which the binding result is “binds”.

The values are drawn from article doi:10.64898/2025.12.16.694677.
